Experimental data from patent US12004506B2 (priority 2013, dated 2024).

Experiment: peptide synthesis
Conditions: whole synthesis, acetate salt

| Substance | final purity (method not given) [%] |
| --- | --- |
| Cyclo(CGQREAPAGAAAKPWYC) (cyclic; cyclized compound having a disulphide bridge; DISULFID (1)..(17)) | 95 |

Experiment: general procedure: Fmoc solid-phase peptide synthesis; 2-chlorotritylchloride resin; Diisopropyl carbodiimide and N-hydroxy benzotriazole
Conditions: whole synthesis, acetate salt

| Substance | final purity (method not given) [%] |
| --- | --- |
| Cyc1o(β-a1anine-GQRETPEGAEAKPWYE) | 100 |
| Cyclo(4-aminobutanoic acid-GQRETPEGAEAKPWYD) | 100 |
| Cyclo(CGQRETPEGAEAKPWYC) | 96.3 |
| Cyclo(KGQRETPEGAEAKPWYG) | 98.8 |
| Cyclo(KSPGQRETPEGAEAKPWYE) | 96.3 |
| Cyclo(ornithine-GQRETPEGAEAKPWYG) | 97.4 |
